Laboratory results: publication PMC2265268
No constants are given. Whether binding was seen depends on the method and setting. Binding seen in cells or lysates may run through a third protein. These calls come from enrichment with a bait or labelling near it, and not all partners need be listed. One block for each molecule: values may come before it.

Sequences of proteins named here, by UniProt entry; tags and fusion partners are left off. Residues count along the entry.
UniProt Q13098, residues 1-200: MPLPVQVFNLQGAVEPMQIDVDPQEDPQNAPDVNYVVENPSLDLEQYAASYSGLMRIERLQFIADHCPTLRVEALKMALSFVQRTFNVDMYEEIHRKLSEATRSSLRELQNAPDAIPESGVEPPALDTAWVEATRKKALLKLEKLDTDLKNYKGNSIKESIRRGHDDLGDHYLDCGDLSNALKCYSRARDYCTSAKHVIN
UniProt O35286: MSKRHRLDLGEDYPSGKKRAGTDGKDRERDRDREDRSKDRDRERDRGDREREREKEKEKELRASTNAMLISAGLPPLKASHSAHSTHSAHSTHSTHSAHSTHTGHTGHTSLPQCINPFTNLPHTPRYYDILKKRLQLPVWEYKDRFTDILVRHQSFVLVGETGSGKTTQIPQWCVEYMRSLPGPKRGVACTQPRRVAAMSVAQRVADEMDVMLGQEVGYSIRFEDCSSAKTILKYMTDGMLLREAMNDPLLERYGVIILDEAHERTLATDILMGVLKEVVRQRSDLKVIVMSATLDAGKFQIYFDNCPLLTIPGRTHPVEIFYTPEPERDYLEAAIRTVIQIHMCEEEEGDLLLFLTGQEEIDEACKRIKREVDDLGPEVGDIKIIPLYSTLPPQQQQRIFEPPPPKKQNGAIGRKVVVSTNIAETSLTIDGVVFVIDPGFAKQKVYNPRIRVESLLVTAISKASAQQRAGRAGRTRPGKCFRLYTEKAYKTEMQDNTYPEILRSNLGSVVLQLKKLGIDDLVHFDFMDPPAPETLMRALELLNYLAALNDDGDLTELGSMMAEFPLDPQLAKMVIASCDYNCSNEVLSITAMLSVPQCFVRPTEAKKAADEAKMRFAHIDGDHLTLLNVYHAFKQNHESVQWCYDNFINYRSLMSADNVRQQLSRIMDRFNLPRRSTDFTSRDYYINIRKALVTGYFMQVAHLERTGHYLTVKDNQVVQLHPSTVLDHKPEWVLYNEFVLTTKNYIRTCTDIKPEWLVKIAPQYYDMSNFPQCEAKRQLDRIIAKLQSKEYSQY

Target: HT-FS1-NTD (UniProt Q13098)
Experiment: affinity purification with mass spectrometry; HT-FS1-NTD immobilised on Ni-NTA beads, incubated with NIH3T3 whole cell extract 3 hr at 4°C in binding buffer (25 mM Tris-HCl pH 7.4, 136 mM NaCl, 5 mM KCl, 20 mM imidazole); eluted by TEV protease; Coomassie bands identified by mass spectrometry and peptide sequencing; only the target purified

binding: binds
Molecule: Ddx15/mDEAH9/prp43 (from UniProt O35286 1-795)

binding: binds
B1: SAP130/SF3b-3 (endogenous, NIH3T3) (protein, UniProt Q921M3 1-1217)
chain: MFLYNLTLQRATGISFAIHGNFSGTKQQEIVVSRGKILELLRPDPNTGKVHTLLTVEVFGVIRSLMAFRLTGGTKDYIVVGSDSGRIVILEYQPSKNMFEKIHQETFGKSGCRRIVPGQFLAVDPKGRAVMISAIEKQKLVYILNRDAAARLTISSPLEAHKANTLVYHVVGVDVGFENPMFACLEMDYEEADNDPTGEAAANTQQTLTFYELDLGLNHVVRKYSEPLEEHGNFLITVPGGSDGPSGVLICSENYITYKNFGDQPDIRCPIPRRRNDLDDPERGMIFVCSATHKTKSMFFFLAQTEQGDIFKITLETDEDMVTEIRLKYFDTVPVAAAMCVLKTGFLFVASEFGNHYLYQIAHLGDDDEEPEFSSAMPLEEGDTFFFQPRPLKNLVLVDELDSLSPILFCQIADLANEDTPQLYVACGRGPRSSLRVLRHGLEVSEMAVSELPGNPNAVWTVRRHIEDEFDAYIIVSFVNATLVLSIGETVEEVTDSGFLGTTPTLSCSLLGDDALVQVYPDGIRHIRADKRVNEWKTPGKKTIVKCAVNQRQVVIALTGGELVYFEMDPSGQLNEYTERKEMSADVVCMSLANVPPGEQRSRFLAVGLVDNTVRIISLDPSDCLQPLSMQALPAQPESLCIVEMGGTEKQDELGERGSIGFLYLNIGLQNGVLLRTVLDPVTGDLSDTRTRYLGSRPVKLFRVRMQGQEAVLAMSSRSWLSYSYQSRFHLTPLSYETLEFASGFASEQCPEGIVAISTNTLRILALEKLGAVFNQVAFPLQYTPRKFVIHPESNNLIIIETDHNAYTEATKAQRKQQMAEEMVEAAGEDERELAAEMAAAFLNENLPESIFGAPKAGNGQWASVIRVMNPIQGNTLDLVQLEQNEAAFSVAVCRFSNTGEDWYVLVGVAKDLILSPRSVAGGFVYTYKLVNNGEKLEFLHKTPVEEVPAAIAPFQGRVLIGVGKLLRVYDLGKKKLLRKCENKHIANYISGIQTIGHRVIVSDVQESFIWVRYKRNENQLIIFADDTYPRWVTTASLLDYDTVAGADKFGNICVVRLPPNTNDEVDEDPTGNKALWDRGLLNGASQKAEVIMNYHVGETVLSLQKTTLIPGGSESLVYTTLSGGIGILVPFTSHEDHDFFQHVEMHLRSEHPPLCGRDHLSFRSYYFPVKNVIDGDLCEQFNSMEPNKQKNVSEELDRTPPEVSKKLEDIRTRYAF
